## Library screen at single concentrations

The values are deposited in ChEMBL (CHEMBL3988442, “University of Dundee, Small-Polar-MMV Screening Library” (2021)).

The filed quantity is “Percent Effect” (%). How 0% and 100% were set is not recorded. Most values in the screen are low, and negative values occur. Compounds were drawn at random from those tested, without regard to their results.

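Whole-cell growth test on Mycobacterium tuberculosis, read after 4 days in a medium based on cholesterol and the lipid DPPC; the read-out is not stated. Compounds at 500 µM. Direction is inferred from retests: higher values go with more growth inhibition. About 18,000 compounds were tested under these conditions; 5% (about 900) showed 50% or more at least once.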

- Cc1ccc(C(=O)Nc2n[nH]c(C3CCC3)n2)c(=O)[nH]1 | -18.63%
- CCN(C)CC1CCN(S(=O)(=O)c2cccnc2)C1 (stereo not shown) | -6.036%
- CC(Sc1nnc[nH]1)C(=O)Nc1ccc(C#N)cc1 (stereo not shown) | 33.02%
- O=C1CC(CO)C2(CCOCC2)CN1 (stereo not shown) | 2.255%
- CCC(C)NC(=O)Nc1cccc(C(=O)NC)c1 (stereo not shown) | -13.12%
- COCCCC1CCNCC1 | 11.19%
- Cc1cc(Br)oc1C(=O)N1CCOC(C)C1 (stereo not shown) | 18.35%
- CC(C)C(=O)NCc1ccc(F)cc1 | 7.575%
- CC[C@@H](O)CN1CCC(OC2CCOC2)CC1 (stereo partly shown) | 2.228%
- O=C(NC1CCNCC1)c1cc2ccccc2o1 | 2.978%
- Cn1nnnc1NCc1cccc(Cl)c1Cl | 50.24%
- Cc1nc2ccc(C(=O)N3CC(O)C3)cc2nc1C | -1.741%
- COc1ccc(CCC(=O)NC(C)C(=O)N(C)C)cc1 (stereo not shown) | -7.283%
- OCc1ccc(OCCF)cn1 | -39.85%
- Cn1cc(NC(=O)CC(C)(C)C)cn1 | -5.179%
- CC(=O)c1ccnc(C)n1 | 5.224%
- CC1(C)CN(C(=O)c2cc(Br)c[nH]2)CCO1 | 57.78%
- CCOC(=O)c1cnc(N2CCNCC2)s1 | 58.64%
- CCSC1CCCCN(CCCNC(C)=O)C1 (stereo not shown) | -13.71%
- Nc1cncc(-c2ccc(CN3CCCCC3)cn2)c1 | -1088%
- CN(C)c1ccc(C(=O)NCCC(O)C(F)(F)F)cc1 (stereo not shown) | 39.07%
- Cc1ncsc1C(=O)Nc1ccc(N(C)C)cn1 | -145.2%
- N[C@H]1CN(CC(=O)N2CCCCC2)C[C@@H]1C1CC1 | -9.729%
- COc1ccccc1C(C)NC(=O)Cn1cc(C)cn1 (stereo not shown) | 29.22%
- O=C(NCC1CCCCN1)Nc1ccccc1 (stereo not shown) | 6.715%
- CN1CCC(N(C)C(=O)CCN)CC1 | 6.2%
- O=C1CN(CC(=O)N2CCCCCC2)CCN1 | -14.68%
- CNC(=O)CC(N)c1ccccc1 (stereo not shown) | 0.3396%
- OCCNC1CCN(c2ncc(Cl)cn2)CC1 | 1.209%
- O=C(COC(=O)c1cccs1)NCc1ccco1 | 100.8%
- OCC1CCN(Cc2ccccc2)C1 (stereo not shown) | 5.21%
- Cc1nnc(CNC(=O)CC2CCCCO2)n1C1CC1 (stereo not shown) | 4.945%
- CN(CCC#N)C(CCO)c1ccccc1 (stereo not shown) | -9.61%
- CC(C)c1cccc(Cn2cc(F)ccc2=O)n1 | -9.556%

For reference, 3 entries once more:

Compound,Percent Effect
CCSC1CCCCN(CCCNC(C)=O)C1 (stereo not shown),-13.71%
N[C@H]1CN(CC(=O)N2CCCCC2)C[C@@H]1C1CC1,-9.729%
Cc1cc(Br)oc1C(=O)N1CCOC(C)C1 (stereo not shown),18.35%